The target in experiment [1] is neuraminidase (NA) of influenza A/Hong Kong/1/68 (H3N2) (Influenza A virus A/Hong Kong/1/68 (H3N2)) (UniProt Q91MA2). The experiment is described as follows: cryo-EM structure.
Experiment [2] addresses neuraminidase (NA) of influenza A/Puerto Rico/8/1934 (H1N1) (Influenza A virus A/Puerto Rico/8/1934 (H1N1)) (UniProt P03468). The experiment is described as follows: in situ cryo-electron tomography.

The chains behind the UniProt entries cited, without tags or fusion partners.
UniProt Q91MA2: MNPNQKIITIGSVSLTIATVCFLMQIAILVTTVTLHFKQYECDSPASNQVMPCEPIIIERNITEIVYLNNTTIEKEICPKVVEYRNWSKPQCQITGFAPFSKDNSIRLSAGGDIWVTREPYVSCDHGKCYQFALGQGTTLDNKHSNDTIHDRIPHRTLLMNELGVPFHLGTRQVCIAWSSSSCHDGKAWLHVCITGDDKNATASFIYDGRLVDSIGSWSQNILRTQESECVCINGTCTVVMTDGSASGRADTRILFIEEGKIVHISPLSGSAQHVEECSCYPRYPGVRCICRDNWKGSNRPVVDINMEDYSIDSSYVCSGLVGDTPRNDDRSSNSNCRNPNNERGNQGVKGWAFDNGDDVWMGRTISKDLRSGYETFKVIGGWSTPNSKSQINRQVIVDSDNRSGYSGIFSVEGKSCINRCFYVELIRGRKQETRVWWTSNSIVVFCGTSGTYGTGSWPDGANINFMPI
UniProt P03468: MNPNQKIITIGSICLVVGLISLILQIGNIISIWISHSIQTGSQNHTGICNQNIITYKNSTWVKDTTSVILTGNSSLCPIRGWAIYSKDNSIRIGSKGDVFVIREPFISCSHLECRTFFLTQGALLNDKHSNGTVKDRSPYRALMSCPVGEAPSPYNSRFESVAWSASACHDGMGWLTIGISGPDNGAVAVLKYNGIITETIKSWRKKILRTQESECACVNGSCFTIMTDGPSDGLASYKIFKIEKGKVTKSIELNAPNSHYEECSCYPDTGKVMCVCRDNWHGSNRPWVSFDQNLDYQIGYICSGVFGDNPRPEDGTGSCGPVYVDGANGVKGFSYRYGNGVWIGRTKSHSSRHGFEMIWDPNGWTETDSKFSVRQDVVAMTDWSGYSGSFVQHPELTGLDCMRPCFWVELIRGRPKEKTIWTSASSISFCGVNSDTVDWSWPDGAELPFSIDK

No constants are given. Whether binding was seen depends on the method and setting. Some results given as binding are weak or reduced against the parent protein; the word gives no strength.

Binding data for two substances are collected here from paper PMC12550032.

Take “neuraminidase (NA) of influenza A/Hong Kong/1/68 (H3N2) (from UniProt Q91MA2 1-469)”: the binding result in experiment [1] is “binds”.

As to “neuraminidase (NA) of influenza A/Puerto Rico/8/1934 (H1N1) (from UniProt P03468 1-454)”, the binding entry in experiment [2] is recorded as “no binding”.
